The results in this text go back to article PMC8755797.

Amino acid sequences for entries named in this document (tags omitted). A change or cut given only in a name is not applied to a line headed by its entry.
UniProt Q9LXD7: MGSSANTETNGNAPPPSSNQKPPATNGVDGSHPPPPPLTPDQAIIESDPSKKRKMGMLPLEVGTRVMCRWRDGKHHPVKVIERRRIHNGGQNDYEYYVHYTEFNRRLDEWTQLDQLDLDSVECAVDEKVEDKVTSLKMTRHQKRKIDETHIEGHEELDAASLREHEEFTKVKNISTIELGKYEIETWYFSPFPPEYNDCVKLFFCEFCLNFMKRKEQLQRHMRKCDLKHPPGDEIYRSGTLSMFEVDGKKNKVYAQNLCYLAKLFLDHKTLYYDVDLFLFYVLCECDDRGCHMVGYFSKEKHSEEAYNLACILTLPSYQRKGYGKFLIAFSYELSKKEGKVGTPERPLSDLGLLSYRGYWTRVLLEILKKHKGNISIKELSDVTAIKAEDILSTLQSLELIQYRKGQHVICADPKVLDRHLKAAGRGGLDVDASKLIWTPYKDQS
UniProt F4IDH5: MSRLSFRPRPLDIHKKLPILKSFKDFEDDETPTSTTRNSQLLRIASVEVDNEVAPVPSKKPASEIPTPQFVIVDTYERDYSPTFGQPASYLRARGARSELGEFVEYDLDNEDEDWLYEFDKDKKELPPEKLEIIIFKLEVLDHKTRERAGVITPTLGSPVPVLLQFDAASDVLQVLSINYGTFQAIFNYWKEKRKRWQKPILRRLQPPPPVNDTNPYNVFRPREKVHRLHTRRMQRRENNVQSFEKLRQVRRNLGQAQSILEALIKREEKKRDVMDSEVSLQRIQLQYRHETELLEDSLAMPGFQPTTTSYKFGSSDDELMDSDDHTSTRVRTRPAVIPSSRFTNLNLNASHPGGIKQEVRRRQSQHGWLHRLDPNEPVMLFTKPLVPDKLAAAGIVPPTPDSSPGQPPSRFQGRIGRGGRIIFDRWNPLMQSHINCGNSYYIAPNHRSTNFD
UniProt Q9FX82: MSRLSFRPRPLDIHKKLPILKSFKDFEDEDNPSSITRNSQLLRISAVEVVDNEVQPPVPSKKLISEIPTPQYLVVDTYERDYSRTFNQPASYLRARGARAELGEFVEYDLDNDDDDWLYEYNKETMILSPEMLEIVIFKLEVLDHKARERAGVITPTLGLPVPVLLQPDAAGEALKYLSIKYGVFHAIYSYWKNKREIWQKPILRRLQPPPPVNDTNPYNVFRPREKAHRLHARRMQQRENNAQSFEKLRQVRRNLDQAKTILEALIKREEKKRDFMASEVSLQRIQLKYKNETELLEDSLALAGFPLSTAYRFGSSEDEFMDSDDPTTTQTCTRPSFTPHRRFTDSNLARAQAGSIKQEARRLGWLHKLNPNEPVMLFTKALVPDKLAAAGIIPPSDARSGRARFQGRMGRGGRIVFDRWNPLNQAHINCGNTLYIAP

One assay concerns the target T1, ING2-6×His (A. thaliana) (UniProt B3H615).
T1 sequence: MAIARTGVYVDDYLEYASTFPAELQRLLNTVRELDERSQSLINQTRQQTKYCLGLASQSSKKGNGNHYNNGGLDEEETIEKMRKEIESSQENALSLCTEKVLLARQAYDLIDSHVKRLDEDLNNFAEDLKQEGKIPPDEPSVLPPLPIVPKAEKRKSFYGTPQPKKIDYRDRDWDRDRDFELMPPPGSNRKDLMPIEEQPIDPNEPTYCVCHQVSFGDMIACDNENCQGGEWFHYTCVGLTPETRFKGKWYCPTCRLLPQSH
Description: pull-down; co-purification: Flag-HAM1, ING2-6×His, AtEPL1A and AtEAF6 co-expressed in E. coli from pST44; cobalt resin via ING2-6×His, then anti-Flag M2 resin, elution with 3×FLAG peptides.

The target in another assay is T2, HAM1-6×His (A. thaliana) (UniProt Q9FLF7).
T2 sequence: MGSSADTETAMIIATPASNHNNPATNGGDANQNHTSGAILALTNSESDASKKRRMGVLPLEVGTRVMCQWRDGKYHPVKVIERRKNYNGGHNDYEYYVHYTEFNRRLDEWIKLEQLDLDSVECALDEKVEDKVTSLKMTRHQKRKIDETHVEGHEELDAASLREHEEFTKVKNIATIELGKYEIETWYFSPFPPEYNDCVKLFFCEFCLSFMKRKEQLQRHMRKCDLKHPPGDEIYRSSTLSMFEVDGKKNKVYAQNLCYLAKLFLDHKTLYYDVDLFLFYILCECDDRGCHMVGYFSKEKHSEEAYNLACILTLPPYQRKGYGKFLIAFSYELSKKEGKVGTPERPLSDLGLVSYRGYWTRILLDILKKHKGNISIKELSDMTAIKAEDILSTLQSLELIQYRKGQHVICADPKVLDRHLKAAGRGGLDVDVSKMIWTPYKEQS
Description: pull-down; co-purification: HAM1-6×His, Flag-AtEPL1A, AtING2 and AtEAF6 co-expressed in E. coli from polycistronic pST44; purified on Talon cobalt resin via HAM1-6×His, eluted with 150 mM imidazole; Coomassie gel, western blot for HAM1-His and Flag-AtEPL1A. In general terms: Immunoblotting shows a protein as a band on a membrane.

The next assay concerns the target T3, His-HAM1 (A. thaliana) (UniProt Q9FLF7).
T3 sequence: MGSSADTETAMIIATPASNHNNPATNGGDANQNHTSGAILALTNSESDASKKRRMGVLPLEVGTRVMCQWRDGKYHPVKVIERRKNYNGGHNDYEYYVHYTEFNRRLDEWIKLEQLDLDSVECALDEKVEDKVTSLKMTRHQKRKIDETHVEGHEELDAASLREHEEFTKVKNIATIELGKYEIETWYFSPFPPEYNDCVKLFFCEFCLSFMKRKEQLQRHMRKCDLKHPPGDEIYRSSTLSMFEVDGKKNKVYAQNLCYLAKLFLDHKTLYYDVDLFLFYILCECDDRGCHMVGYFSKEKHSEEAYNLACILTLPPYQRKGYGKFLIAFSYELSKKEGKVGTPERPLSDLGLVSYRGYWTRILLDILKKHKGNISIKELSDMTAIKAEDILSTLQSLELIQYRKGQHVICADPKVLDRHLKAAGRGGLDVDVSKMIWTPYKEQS
Description: pull-down; His-GFP or His-fusion proteins from bacterial lysates bound to HIS-Select HF Nickel Affinity Gel for 1 h, washed, incubated with recombinant GST-fusion proteins 1 h at 4 °C; five washes with wash buffer containing 0.5% NP40; western blot with anti-GST and anti-His; only the target purified.

For another assay, the target named is His-HAM2 (A. thaliana) (UniProt Q9LXD7). The assay is described as above.
In assay [1] the target is T4, His-tagged fragment of AtEAF1B corresponding to AAs 430-1322 (A. thaliana) (UniProt F4J7T2).
T4 sequence: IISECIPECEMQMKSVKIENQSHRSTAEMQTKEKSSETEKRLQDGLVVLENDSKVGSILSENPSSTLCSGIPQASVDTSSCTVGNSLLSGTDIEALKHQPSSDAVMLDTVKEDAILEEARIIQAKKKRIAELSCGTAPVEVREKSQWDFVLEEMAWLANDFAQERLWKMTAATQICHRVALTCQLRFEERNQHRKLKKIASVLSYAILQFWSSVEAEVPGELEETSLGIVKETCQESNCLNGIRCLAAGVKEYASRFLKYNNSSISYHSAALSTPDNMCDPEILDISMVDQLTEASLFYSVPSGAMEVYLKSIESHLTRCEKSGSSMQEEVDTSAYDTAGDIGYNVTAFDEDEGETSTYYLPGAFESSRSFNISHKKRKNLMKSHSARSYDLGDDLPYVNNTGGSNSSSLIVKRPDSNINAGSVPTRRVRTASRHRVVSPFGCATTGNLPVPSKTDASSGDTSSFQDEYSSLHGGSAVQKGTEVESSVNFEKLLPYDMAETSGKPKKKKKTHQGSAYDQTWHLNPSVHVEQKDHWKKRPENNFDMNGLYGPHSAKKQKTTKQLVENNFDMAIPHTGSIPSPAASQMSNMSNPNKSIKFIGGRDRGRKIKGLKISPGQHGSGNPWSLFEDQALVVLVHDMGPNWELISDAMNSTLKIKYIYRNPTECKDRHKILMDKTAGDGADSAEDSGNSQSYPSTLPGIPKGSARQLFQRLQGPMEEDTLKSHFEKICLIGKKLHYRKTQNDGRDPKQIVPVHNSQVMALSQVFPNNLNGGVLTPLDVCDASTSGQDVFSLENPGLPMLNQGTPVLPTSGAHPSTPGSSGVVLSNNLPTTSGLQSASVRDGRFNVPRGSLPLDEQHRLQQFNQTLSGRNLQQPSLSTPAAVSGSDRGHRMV
The assay is described as above.

In assay [2] the target is GST-AtEPL1B (A. thaliana) (UniProt F4IDH5). As to the kind of experiment: far-Western, overlay or dot blot; GST-AtEPL1A/B purified on Glutathione Sepharose, resolved by SDS-PAGE, blotted on PVDF and renatured (guanidine-HCl steps in AC buffer); membrane incubated with His-HAM1 or His-HAM2, detected with anti-His; how His-HAM1/2 were prepared for this experiment is not told; only the target purified.

Assay [3] deals with GST-AtEPL1A (A. thaliana) (UniProt Q9FX82). Described as above.
Assay [4] concerns the target Flag-AtEPL1A (A. thaliana) (UniProt Q9FX82). As to the kind of experiment: pull-down; co-purification of the co-expressed recombinant picNuA4 subunits with AtEPL1A as bait; procedure not told in the methods (Supplementary Fig. 8a).

No constants are given. Whether binding was seen depends on the method and setting. Binding calls can cover weak binding; strength is not graded here. For part of these data: Where a sequence is shown, tags or fusion partners need not be part of it. For part of these data: In cells and extracts the contact can be indirect.

With AtEAF6 (A. thaliana), the binding result with ING2-6×His (A. thaliana) and with HAM1-6×His (A. thaliana) was “binds” in each case.

As for AtEPL1A (A. thaliana), the binding result in the assay with ING2-6×His (A. thaliana) is “binds”. Flag-AtEPL1A (from UniProt Q9FX82): in the assay with HAM1-6×His (A. thaliana), the binding result was “binds”. Turning to GST-AtEPL1A (from UniProt Q9FX82), the binding result with His-HAM1 (A. thaliana) and with His-HAM2 (A. thaliana) was “binds” each time. Regarding GST-AtEPL1B (from UniProt F4IDH5), the binding result (with His-HAM1 (A. thaliana); in assay [1]; in the assay with His-HAM2 (A. thaliana)) was “binds” in each case. Turning to “His-HAM2 (from UniProt Q9LXD7 1-445) (enzyme)”, the binding entry in assay [2] and in assay [3] was “binds” each time.

B1: AtING2 (protein, UniProt B3H615 1-262)
chain: MAIARTGVYVDDYLEYASTFPAELQRLLNTVRELDERSQSLINQTRQQTKYCLGLASQSSKKGNGNHYNNGGLDEEETIEKMRKEIESSQENALSLCTEKVLLARQAYDLIDSHVKRLDEDLNNFAEDLKQEGKIPPDEPSVLPPLPIVPKAEKRKSFYGTPQPKKIDYRDRDWDRDRDFELMPPPGSNRKDLMPIEEQPIDPNEPTYCVCHQVSFGDMIACDNENCQGGEWFHYTCVGLTPETRFKGKWYCPTCRLLPQSH
Take B1: the binding result in assay [4] is listed as “binds”.

B2: HAM1-6×His (enzyme, UniProt Q9FLF7 1-445)
chain: MGSSADTETAMIIATPASNHNNPATNGGDANQNHTSGAILALTNSESDASKKRRMGVLPLEVGTRVMCQWRDGKYHPVKVIERRKNYNGGHNDYEYYVHYTEFNRRLDEWIKLEQLDLDSVECALDEKVEDKVTSLKMTRHQKRKIDETHVEGHEELDAASLREHEEFTKVKNIATIELGKYEIETWYFSPFPPEYNDCVKLFFCEFCLSFMKRKEQLQRHMRKCDLKHPPGDEIYRSSTLSMFEVDGKKNKVYAQNLCYLAKLFLDHKTLYYDVDLFLFYILCECDDRGCHMVGYFSKEKHSEEAYNLACILTLPPYQRKGYGKFLIAFSYELSKKEGKVGTPERPLSDLGLVSYRGYWTRILLDILKKHKGNISIKELSDMTAIKAEDILSTLQSLELIQYRKGQHVICADPKVLDRHLKAAGRGGLDVDVSKMIWTPYKEQS
As for B2, the binding result in assay [4] is on record as “binds”.

B3: His-HAM1 (enzyme, UniProt Q9FLF7 1-445)
chain: MGSSADTETAMIIATPASNHNNPATNGGDANQNHTSGAILALTNSESDASKKRRMGVLPLEVGTRVMCQWRDGKYHPVKVIERRKNYNGGHNDYEYYVHYTEFNRRLDEWIKLEQLDLDSVECALDEKVEDKVTSLKMTRHQKRKIDETHVEGHEELDAASLREHEEFTKVKNIATIELGKYEIETWYFSPFPPEYNDCVKLFFCEFCLSFMKRKEQLQRHMRKCDLKHPPGDEIYRSSTLSMFEVDGKKNKVYAQNLCYLAKLFLDHKTLYYDVDLFLFYILCECDDRGCHMVGYFSKEKHSEEAYNLACILTLPPYQRKGYGKFLIAFSYELSKKEGKVGTPERPLSDLGLVSYRGYWTRILLDILKKHKGNISIKELSDMTAIKAEDILSTLQSLELIQYRKGQHVICADPKVLDRHLKAAGRGGLDVDVSKMIWTPYKEQS
Consider B3, for which the binding entry in assay [2] and in assay [3] was “binds” in each case.
